Consider two molecules from publication PMC4299515.

The target in assay [1] is T1, SUV39H1, GFP- or RFP-tagged, in U2OS cells (F2H) (UniProt O54864).
T1 sequence: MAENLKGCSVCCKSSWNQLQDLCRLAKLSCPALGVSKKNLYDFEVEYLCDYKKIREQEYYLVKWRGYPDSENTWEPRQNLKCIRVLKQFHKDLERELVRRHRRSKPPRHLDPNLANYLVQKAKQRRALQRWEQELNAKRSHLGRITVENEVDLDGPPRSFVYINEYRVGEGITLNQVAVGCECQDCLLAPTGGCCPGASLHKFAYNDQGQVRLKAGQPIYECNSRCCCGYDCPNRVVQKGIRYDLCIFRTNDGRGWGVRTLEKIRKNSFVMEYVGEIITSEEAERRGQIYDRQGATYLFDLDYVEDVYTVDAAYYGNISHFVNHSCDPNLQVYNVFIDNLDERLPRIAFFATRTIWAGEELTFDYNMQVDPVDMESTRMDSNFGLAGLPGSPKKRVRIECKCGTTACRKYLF
The experiment in a line: two-hybrid; fluorescent two-hybrid (F2H) in living human U2OS cells: GFP-tagged protein tethered to lac-operator arrays via GBP-LacI, recruitment of the RFP-tagged protein seen by colocalization.

In assay [2] the target is T2, MBD1 in U2OS cells (F2H), Q9Z2E2.
T2 chain: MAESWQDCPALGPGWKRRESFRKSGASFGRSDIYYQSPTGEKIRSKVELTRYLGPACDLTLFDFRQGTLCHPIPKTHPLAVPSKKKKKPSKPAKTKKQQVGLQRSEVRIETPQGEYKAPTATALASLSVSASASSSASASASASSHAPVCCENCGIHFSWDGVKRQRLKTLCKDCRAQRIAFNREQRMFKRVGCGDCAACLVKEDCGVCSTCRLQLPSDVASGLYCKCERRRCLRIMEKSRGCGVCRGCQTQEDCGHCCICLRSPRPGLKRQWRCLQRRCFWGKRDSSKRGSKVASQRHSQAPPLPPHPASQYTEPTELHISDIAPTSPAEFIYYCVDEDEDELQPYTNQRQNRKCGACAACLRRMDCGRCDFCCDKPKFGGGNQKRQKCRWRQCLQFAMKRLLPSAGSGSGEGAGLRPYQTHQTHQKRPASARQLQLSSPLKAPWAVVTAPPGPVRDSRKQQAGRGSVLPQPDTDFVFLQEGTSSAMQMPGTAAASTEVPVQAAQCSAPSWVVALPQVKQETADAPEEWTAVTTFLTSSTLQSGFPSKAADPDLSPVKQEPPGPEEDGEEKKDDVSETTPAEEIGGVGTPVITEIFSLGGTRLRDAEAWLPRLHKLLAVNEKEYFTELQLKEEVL
The assay is described as above. The conditions noted are these: remark: other sources report otherwise.

Results are given in words; binding and its absence hold for the method and conditions named. Some results given as binding are weak or reduced against the parent protein; the word gives no strength. Tags and fused reporters may be left off the sequences shown.

B1: SUV39H1, GFP- or RFP-tagged, in U2OS cells (F2H) (enzyme, UniProt O54864 1-412)
chain: T1 sequence
B1: the binding result in assay [1] was “binds”.

B2: SUV39H1, GFP- or RFP-tagged, in U2OS cells (F2H), O54864 1-412 (enzyme)
chain: T1 sequence
For B2, the binding entry in assay [2] is recorded as “no binding”.
